Experimental data: publication PMC5509727
No constants are given. Whether binding was seen depends on the method and setting. In cells and extracts the contact can be indirect. For part of these data: Binding can be weak; no strength is given. Sequences can lack the tags named with a protein.

What was measured:
Experiment in all cases: co-IP; IP-Western of IFT88 with DGKδ deletion constructs (Fig. 2G); precipitating antibody and cell line not told for this panel
[1] = target: DGKδ deletion construct: C-terminal (human)
[2] = target: DGKδ deletion construct: N-terminal (human)
[3] = target: DGKδ deletion construct: catalytic domain (human)

B1: FLAG-IFT88 (pCMV-IFT88-3XFLAG) (protein, UniProt Q61371 1-824)
chain: MENVHLAPETDEDDLYSGFNDYNPAYDTEELENDTGFQQAVRTSHGRRPPVTAKIPSTAVSRPIATGYGSKTSLTSSMGRPMTGTIQDGVARPMTAVRAAGFSKAALRGSAFDPLGQSRGPAPPLEAKNEDSPEEKIRQLEKKVNELVEESCIANSCGDLKLALEKAKDAGRKERVLVRQREQVTSPENINLDLTYSVLFNLASQYSANEMYAEALNTYQVIVKNKMFSNAGRLKVNMGNIYLKQRNYSKAIKFYRMALDQIPSVHKEMRIKIMQNIGITFIKTGQYSDAINSFEHIMSMAPSLKAGFNLILSCFAIGDREKMKKAFQKLIAVPLEIDEDDKYISPSDDPHTNLLIEAIKNDHLRQMERERKAMAEKYIMTAAKLIAPVIEASFAVGYNWCVEVVKASQYVELANDLEINKAITYLRQKDFNQAVDTLKMFEKKDSRVKSAAATNLSFLYYLENEFAQASSYADLAVNSDRYNPSALTNKGNTVFANGDYEKAAEFYKEALRNDSSCTEALYNIGLTYKKLNRLDEALDSFLKLHAILRNSAQVLCQIANIYELMEDPNQAIEWLMQLISVVPTDSQALSKLGELYDSEGDKSQAFQYYYESYRYFPSNIEVIEWLGAYYIDTQFCEKAIQYFERASLIQPTQVKWQLMVASCFRRSGNYQKALDTYKEIHRKFPENVECLRFLVRLCTDIGLKEVQEYATKLKRLEKMKEMREQRIKSGRDSSGGSRSKREGSAGSDSGQNNSASSKSERLSAKLRALPGTDEPYESSGNKEIDASYVDPLGPQIERPKTAAKKRIDEDDFADEELGDDLLPE
binding [1]: binds
binding [2]: no binding
binding [3]: binds
